Consider one compound from PubChem BioAssay (NCI).

The entries are a selection whose mix differs from that of the whole data set.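 For each line, cells grew in 96-well plates with the test compound present at a single concentration for 48 hours.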 Activity calls are given as the source filed them. Rule for the calls: active = growth percent below 10; inactive = the rest.

The subject of assay [1] is PC-3 prostate. Briefly: NCI-60 one-dose screen, 48 h (100 = growth as untreated, 0 = no growth, -100 = all killed). The following applies: 10 µM.
Assay [2] deals with CCRF-CEM leukemia. The assay is described as above. Conditions: 10 µM.

With `COc1c(O)cc2c(c1OC)-c1ccc(SC)c(=O)cc1C(NC(C)=O)CC2` (configuration not stated), the values for the growth in assay [1] and in assay [2] were active: -14.2% and active: 1.31%, respectively.
